Measurements as given in patent publication US20220370463A1, “STABILIZED C-FMS INTRACELLULAR FRAGMENTS (FICD) PROMOTE OSTEOCLAST DIFFERENTIATION AND ARTHRITIC BONE EROSION” (New York Society for the Relief of the Ruptured and …, priority 2019, published 2022).
These are yes or no findings as the source states them, for the method shown. Binding seen in cells or lysates may run through a third protein. Some entries that bind do so weakly or less than the wild type. Sequences can lack the tags named with a protein.

What was measured:
[1] = molecular target: T1, DAP5 (eIF4G2), endogenous in mouse BMDMs (mouse) (UniProt Q62448); experiment: co-immunoprecipitation with anti-HA-tag beads from BMDM lysates, immunoblot
T1 sequence (looked up): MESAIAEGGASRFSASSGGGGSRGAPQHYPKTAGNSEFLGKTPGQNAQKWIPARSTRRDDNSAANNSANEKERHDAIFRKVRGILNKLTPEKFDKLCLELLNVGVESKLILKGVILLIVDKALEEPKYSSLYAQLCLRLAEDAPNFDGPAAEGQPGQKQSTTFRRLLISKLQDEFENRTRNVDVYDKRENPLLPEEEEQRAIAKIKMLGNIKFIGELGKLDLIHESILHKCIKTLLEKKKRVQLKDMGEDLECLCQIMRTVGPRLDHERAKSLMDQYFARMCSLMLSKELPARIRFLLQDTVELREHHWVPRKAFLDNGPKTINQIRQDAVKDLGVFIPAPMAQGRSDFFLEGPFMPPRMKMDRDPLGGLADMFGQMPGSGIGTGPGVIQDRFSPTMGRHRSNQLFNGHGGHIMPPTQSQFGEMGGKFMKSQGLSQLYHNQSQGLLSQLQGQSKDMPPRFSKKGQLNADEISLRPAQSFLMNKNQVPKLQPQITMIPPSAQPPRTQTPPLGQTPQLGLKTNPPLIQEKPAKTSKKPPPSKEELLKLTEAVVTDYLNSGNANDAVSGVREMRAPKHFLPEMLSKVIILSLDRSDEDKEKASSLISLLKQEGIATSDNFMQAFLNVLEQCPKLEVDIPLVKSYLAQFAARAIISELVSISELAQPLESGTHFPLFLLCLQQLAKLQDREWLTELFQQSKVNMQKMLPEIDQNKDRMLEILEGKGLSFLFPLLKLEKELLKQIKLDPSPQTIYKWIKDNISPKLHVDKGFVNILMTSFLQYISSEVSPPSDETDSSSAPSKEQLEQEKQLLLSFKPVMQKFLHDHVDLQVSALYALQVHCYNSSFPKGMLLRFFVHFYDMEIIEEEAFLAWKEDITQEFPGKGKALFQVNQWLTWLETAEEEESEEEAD

[2] = molecular target: T1, DAP5 (eIF4G2), endogenous in mouse BMDMs (mouse); experiment: co-immunoprecipitation (discussion of results)
[3] = molecular target: T1, DAP5 (eIF4G2), endogenous in mouse BMDMs (mouse); experiment: co-immunoprecipitation (summary of findings)

Measured: binding

B1: HA-tagged FICD (human CSF1R intracellular domain) expressed in BMDMs of FICDtg^M mice (protein, UniProt P07333 539-972, looked up, not shown: small tags and cut ends)
chain: KYKQKPKYQVRWKIIESYEGNSYTFIDPTQLPYNEKWEFPRNNLQFGKTLGAGAFGKVVEATAFGLGKEDAVLKVAVKMLKSTAHADEKEALMSELKIMSHLGQHENIVNLLGACTHGGPVLVITEYCCYGDLLNFLRRKAEAMLGPSLSPGQDPEGGVDYKNIHLEKKYVRRDSGFSSQGVDTYVEMRPVSTSSNDSFSEQDLDKEDGRPLELRDLLHFSSQVAQGMAFLASKNCIHRDVAARNVLLTNGHVAKIGDFGLARDIMNDSNYIVKGNARLPVKWMAPESIFDCVYTVQSDVWSYGILLWEIFSLGLNPYPGILVNSKFYKLVKDGYQMAQPAFAPKNIYSIMQACWALEPTHRPTFQQICSFLQEQAQEDRRERDYTNLPSSSRSGGSGSSSSELEEESSSEHLTCCEQGDIAQPLLQPNNYQFC
binds: [1] | [2] | [3]
